Results are given in words; binding and its absence hold for the method and conditions named. Some results given as binding are weak or reduced against the parent protein; the word gives no strength.
Key:
[1] = molecular target: T1, mouse B7-H4 protein (mouse) (UniProt Q7TSP5); test: binding of B7-H4 protein to CAR T cells (FIG. 14 legend)
T1 sequence (looked up): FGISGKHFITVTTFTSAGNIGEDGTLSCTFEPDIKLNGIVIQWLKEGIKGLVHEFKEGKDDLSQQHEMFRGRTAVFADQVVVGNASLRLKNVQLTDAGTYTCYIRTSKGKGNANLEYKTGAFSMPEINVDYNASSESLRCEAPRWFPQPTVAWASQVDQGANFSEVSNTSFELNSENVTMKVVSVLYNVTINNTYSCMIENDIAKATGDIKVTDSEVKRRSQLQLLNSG

Chains of the proteins cited; added tags and fusions are not shown. Lines headed by an entry give the natural chain unless they say otherwise; changes in a name come on top.
UniProt P01732: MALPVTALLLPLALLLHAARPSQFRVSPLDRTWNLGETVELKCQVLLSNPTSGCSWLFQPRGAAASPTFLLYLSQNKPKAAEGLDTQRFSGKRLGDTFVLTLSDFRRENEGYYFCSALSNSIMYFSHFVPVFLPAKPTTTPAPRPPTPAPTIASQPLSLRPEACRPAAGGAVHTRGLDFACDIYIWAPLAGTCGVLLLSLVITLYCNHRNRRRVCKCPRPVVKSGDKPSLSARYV

[2] = molecular target: T2, human B7-H4 protein (as used with the CAR T cells of Example 3) (human) (UniProt Q7Z7D3); test: as above
T2 sequence (looked up): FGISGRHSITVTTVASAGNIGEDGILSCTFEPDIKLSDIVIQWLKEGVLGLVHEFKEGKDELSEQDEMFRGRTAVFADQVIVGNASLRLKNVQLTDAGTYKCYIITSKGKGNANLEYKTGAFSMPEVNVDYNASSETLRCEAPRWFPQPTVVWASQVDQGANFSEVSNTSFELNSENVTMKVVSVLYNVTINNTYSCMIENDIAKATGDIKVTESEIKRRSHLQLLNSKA

[3] = molecular target: T2, human B7-H4 protein (as used with the CAR T cells of Example 3) (human); test: binding of B7-H4 protein to CAR T cells (FIG. 13 legend)
[4] = molecular target: T2, human B7-H4 protein (as used with the CAR T cells of Example 3) (human); test: binding of B7-H4 protein to CAR T cells (FIG. 13)
[5] = molecular target: T1, mouse B7-H4 protein (mouse); test: binding of B7-H4 protein to CAR T cells (FIG. 14)
[6] = molecular target: T2, human B7-H4 protein (as used with the CAR T cells of Example 3) (human); test: binding of B7-H4 protein to CAR T cells (FIG. 14)

Measured: binding

B7-H4 CAR with anti-B7H4 scFv clone 26 (from UniProt P01732 138-206; P10747 180-220; P20963 52-163)
binds: [1] | [2] | [3] | [4] | [5] | [6]

B7-H4 CAR with anti-B7H4 scFv clone 56 (from UniProt P01732 138-206; P10747 180-220; P20963 52-163)
binds: [1] | [2] | [3] | [4] | [5] | [6]

B7-H4 CAR with anti-B7H4 scFv clone 3#68 (from UniProt P01732 138-206; P10747 180-220; P20963 52-163)
binds: [1] | [2] | [3] | [4] | [5] | [6]

B7-H4 CAR with anti-B7H4 scFv clone 3#54 (from UniProt P01732 138-206; P10747 180-220; P20963 52-163)
binds: [1] | [2] | [3] | [4] | [5] | [6]

From patent US20140308259A1 (University of Pennsylvania, published 2014)
